Values of other authors in patent publication US6468757B2, “Method for determining drug-serum protein binding” (priority 2000, dated 2002).

Settings: human plasma; data from Goodman and Gilman's 1996; cited from earlier work

For `CN1C(=O)CN=C(c2ccccc2)c2cc(Cl)ccc21` [Diazepam, diazepam], the “% Bound in Plasma” value is listed as 98.7 ± 0.2%.
